Experimental data: PubChem BioAssay AID743121 (NCATS, 2013)

Purpose: 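Knock-downs that sensitise breast cancer cells to camptothecin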 (primary screen)
System: MDA-MB-231 cells, a human breast cancer line
Reagent: single siRNA against human genes, 20 nM siRNA (0.8 pmol per well)
Duration: 120 h (drug added 48 h after transfection, read 72 h later)
Conditions: camptothecin 20 nM (about EC30) for 72 h; vehicle 0.1% DMSO in parallel plates
Detection: 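Cell viability by ATP luminescence (CellTiter-Glo) as % of non-targeting siRNA wells, and the log2 ratio of viability without drug over viability with camptothecin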
Direction: log2 vehicle/camptothecin viability: higher = stronger sensitisation to camptothecin
Active means: 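Each gene scored by redundant siRNA activity (RSA) over its individual siRNA ratios; a gene is called active at p < 0.001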
Shown is a random part of about 26,000 reagents tested. In the full data, 167 (0.63%) got an active call. 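Calls are per gene from RSA p-values that are not deposited; an individual active-marked siRNA can sensitise only weakly.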 Reagents against one gene are numbered here. Further read-outs or replicates are left out here.

{"gene": "AVP (arginine vasopressin)", "siRNA no.": 1, "log2 vehicle/camptothecin viability": -0.382, "Outcome": "inactive"}
{"gene": "AVP (arginine vasopressin)", "siRNA no.": 2, "log2 vehicle/camptothecin viability": -0.0732, "Outcome": "inactive"}
{"gene": "AVP (arginine vasopressin)", "siRNA no.": 3, "log2 vehicle/camptothecin viability": -0.368, "Outcome": "inactive"}
{"gene": "AVP (arginine vasopressin)", "siRNA no.": 4, "log2 vehicle/camptothecin viability": -0.0255, "Outcome": "inactive"}
{"gene": "PLA2G10 (phospholipase A2 group X)", "siRNA no.": 1, "log2 vehicle/camptothecin viability": 0.0178, "Outcome": "inactive"}
{"gene": "PLA2G10 (phospholipase A2 group X)", "siRNA no.": 2, "log2 vehicle/camptothecin viability": 0.147, "Outcome": "inactive"}
{"gene": "PLA2G10 (phospholipase A2 group X)", "siRNA no.": 3, "log2 vehicle/camptothecin viability": -0.209, "Outcome": "inactive"}
{"gene": "SLC6A8", "siRNA no.": 1, "log2 vehicle/camptothecin viability": 0.707, "Outcome": "inactive"}
{"gene": "SLC6A8", "siRNA no.": 2, "log2 vehicle/camptothecin viability": -0.409, "Outcome": "inactive"}
{"gene": "SLC6A8", "siRNA no.": 3, "log2 vehicle/camptothecin viability": 0.0566, "Outcome": "inactive"}
{"gene": "TESK2 (testis associated actin remodelling kinase 2)", "siRNA no.": 1, "log2 vehicle/camptothecin viability": -0.6, "Outcome": "inactive"}
{"gene": "TESK2 (testis associated actin remodelling kinase 2)", "siRNA no.": 2, "log2 vehicle/camptothecin viability": -0.0439, "Outcome": "inactive"}
{"gene": "TESK2 (testis associated actin remodelling kinase 2)", "siRNA no.": 3, "log2 vehicle/camptothecin viability": -0.415, "Outcome": "inactive"}
{"gene": "TESK2 (testis associated actin remodelling kinase 2)", "siRNA no.": 4, "log2 vehicle/camptothecin viability": -0.402, "Outcome": "inactive"}
{"gene": "YWHAH", "siRNA no.": 1, "log2 vehicle/camptothecin viability": -0.219, "Outcome": "inactive"}
{"gene": "YWHAH", "siRNA no.": 2, "log2 vehicle/camptothecin viability": -0.0842, "Outcome": "inactive"}
{"gene": "YWHAH", "siRNA no.": 3, "log2 vehicle/camptothecin viability": 0.0245, "Outcome": "inactive"}
{"gene": "YWHAH", "siRNA no.": 4, "log2 vehicle/camptothecin viability": 0.0493, "Outcome": "inactive"}
{"gene": "MICB (MHC class I polypeptide-related sequence B)", "siRNA no.": 1, "log2 vehicle/camptothecin viability": -0.197, "Outcome": "inactive"}
{"gene": "MICB (MHC class I polypeptide-related sequence B)", "siRNA no.": 2, "log2 vehicle/camptothecin viability": 0.946, "Outcome": "inactive"}
{"gene": "MICB (MHC class I polypeptide-related sequence B)", "siRNA no.": 3, "log2 vehicle/camptothecin viability": 0.00196, "Outcome": "inactive"}
{"gene": "MICB (MHC class I polypeptide-related sequence B)", "siRNA no.": 4, "log2 vehicle/camptothecin viability": -0.549, "Outcome": "inactive"}
{"gene": "TLR2 (toll like receptor 2)", "siRNA no.": 1, "log2 vehicle/camptothecin viability": -0.194, "Outcome": "inactive"}
{"gene": "TLR2 (toll like receptor 2)", "siRNA no.": 2, "log2 vehicle/camptothecin viability": -0.378, "Outcome": "inactive"}
{"gene": "TLR2 (toll like receptor 2)", "siRNA no.": 3, "log2 vehicle/camptothecin viability": -0.0312, "Outcome": "inactive"}
{"gene": "TLR2 (toll like receptor 2)", "siRNA no.": 4, "log2 vehicle/camptothecin viability": 0.398, "Outcome": "inactive"}
{"gene": "SMYD1 (SET and MYND domain containing 1)", "siRNA no.": 1, "log2 vehicle/camptothecin viability": -0.0306, "Outcome": "inactive"}
{"gene": "SMYD1 (SET and MYND domain containing 1)", "siRNA no.": 2, "log2 vehicle/camptothecin viability": -0.307, "Outcome": "inactive"}
{"gene": "SMYD1 (SET and MYND domain containing 1)", "siRNA no.": 3, "log2 vehicle/camptothecin viability": -0.498, "Outcome": "inactive"}
{"gene": "SMYD1 (SET and MYND domain containing 1)", "siRNA no.": 4, "log2 vehicle/camptothecin viability": -0.668, "Outcome": "inactive"}

Looked up above.
Entry of TESK2 (testis associated actin remodelling kinase 2) #3 under “log2 vehicle/camptothecin viability”: -0.415
Value of SLC6A8 #1 in “log2 vehicle/camptothecin viability”: 0.707
Under “Outcome”, MICB (MHC class I polypeptide-related sequence B) #1 has inactive
For “log2 vehicle/camptothecin viability”, PLA2G10 (phospholipase A2 group X) #3 is entered as -0.209
For “Outcome”, SMYD1 (SET and MYND domain containing 1) #1 is entered as inactive
MICB (MHC class I polypeptide-related sequence B) #2, log2 vehicle/camptothecin viability → 0.946

Continued.
{"gene": "OXNAD1 (oxidoreductase NAD binding domain containing 1)", "siRNA no.": 1, "log2 vehicle/camptothecin viability": 0.26, "Outcome": "inactive"}
{"gene": "OXNAD1 (oxidoreductase NAD binding domain containing 1)", "siRNA no.": 2, "log2 vehicle/camptothecin viability": -0.15, "Outcome": "inactive"}
{"gene": "OXNAD1 (oxidoreductase NAD binding domain containing 1)", "siRNA no.": 3, "log2 vehicle/camptothecin viability": -0.0302, "Outcome": "inactive"}
{"gene": "OXNAD1 (oxidoreductase NAD binding domain containing 1)", "siRNA no.": 4, "log2 vehicle/camptothecin viability": 0.239, "Outcome": "inactive"}
{"gene": "MED4 (mediator complex subunit 4)", "siRNA no.": 1, "log2 vehicle/camptothecin viability": -0.193, "Outcome": "inactive"}
{"gene": "MED4 (mediator complex subunit 4)", "siRNA no.": 2, "log2 vehicle/camptothecin viability": 0.167, "Outcome": "inactive"}
{"gene": "MED4 (mediator complex subunit 4)", "siRNA no.": 3, "log2 vehicle/camptothecin viability": -0.197, "Outcome": "inactive"}
{"gene": "SCAF11 (SR-related CTD associated factor 11)", "siRNA no.": 1, "log2 vehicle/camptothecin viability": -0.202, "Outcome": "inactive"}
{"gene": "SCAF11 (SR-related CTD associated factor 11)", "siRNA no.": 2, "log2 vehicle/camptothecin viability": -0.334, "Outcome": "inactive"}
{"gene": "SCAF11 (SR-related CTD associated factor 11)", "siRNA no.": 3, "log2 vehicle/camptothecin viability": -0.122, "Outcome": "inactive"}
{"gene": "SCAF11 (SR-related CTD associated factor 11)", "siRNA no.": 4, "log2 vehicle/camptothecin viability": 0.0732, "Outcome": "inactive"}
{"gene": "HSDL1 (hydroxysteroid dehydrogenase like 1)", "siRNA no.": 1, "log2 vehicle/camptothecin viability": -0.0922, "Outcome": "inactive"}
{"gene": "HSDL1 (hydroxysteroid dehydrogenase like 1)", "siRNA no.": 2, "log2 vehicle/camptothecin viability": -0.0665, "Outcome": "inactive"}
{"gene": "HSDL1 (hydroxysteroid dehydrogenase like 1)", "siRNA no.": 3, "log2 vehicle/camptothecin viability": -0.0853, "Outcome": "inactive"}
{"gene": "HSDL1 (hydroxysteroid dehydrogenase like 1)", "siRNA no.": 4, "log2 vehicle/camptothecin viability": -0.226, "Outcome": "inactive"}
